Results from PMC4749301.
Results are given in words; binding and its absence hold for the method and conditions named. Binding seen in cells or lysates may run through a third protein. Binding calls can cover weak binding; strength is not graded here. Tags and fused reporters may be left off the sequences shown.

Molecular target: T1, Myc-Smo^WT (Myc-tagged wild-type Drosophila Smoothened) (Drosophila) (UniProt P91682)
T1 sequence: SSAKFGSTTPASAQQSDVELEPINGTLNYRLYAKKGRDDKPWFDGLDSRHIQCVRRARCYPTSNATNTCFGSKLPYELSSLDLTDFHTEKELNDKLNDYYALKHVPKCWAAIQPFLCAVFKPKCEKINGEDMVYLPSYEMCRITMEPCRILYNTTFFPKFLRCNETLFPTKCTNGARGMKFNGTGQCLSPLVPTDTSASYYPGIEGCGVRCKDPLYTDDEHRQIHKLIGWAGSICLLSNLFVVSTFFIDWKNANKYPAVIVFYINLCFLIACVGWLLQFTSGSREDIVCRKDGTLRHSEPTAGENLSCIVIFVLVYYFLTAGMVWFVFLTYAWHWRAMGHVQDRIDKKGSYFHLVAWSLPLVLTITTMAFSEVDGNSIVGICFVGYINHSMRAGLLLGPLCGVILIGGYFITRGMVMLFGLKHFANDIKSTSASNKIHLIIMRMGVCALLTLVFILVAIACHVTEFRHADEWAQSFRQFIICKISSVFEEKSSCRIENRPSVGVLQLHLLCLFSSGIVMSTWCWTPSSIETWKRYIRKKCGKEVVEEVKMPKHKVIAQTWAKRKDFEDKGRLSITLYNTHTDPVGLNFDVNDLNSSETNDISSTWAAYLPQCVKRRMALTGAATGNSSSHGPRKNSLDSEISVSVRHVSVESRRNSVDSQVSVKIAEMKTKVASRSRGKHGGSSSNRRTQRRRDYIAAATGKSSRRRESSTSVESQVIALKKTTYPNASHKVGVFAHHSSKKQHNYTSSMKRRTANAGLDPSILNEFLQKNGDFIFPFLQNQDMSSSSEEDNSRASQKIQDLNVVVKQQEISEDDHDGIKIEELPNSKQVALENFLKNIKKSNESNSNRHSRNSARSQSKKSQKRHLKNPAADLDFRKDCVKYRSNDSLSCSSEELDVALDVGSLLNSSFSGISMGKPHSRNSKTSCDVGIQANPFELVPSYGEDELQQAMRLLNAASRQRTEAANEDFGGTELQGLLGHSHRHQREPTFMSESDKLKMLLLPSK
Experiment: co-IP; S2 cells transfected with Myc-Smo^WT and the HA-tagged PH domain, treated with PI(4)P (5 or 10 uM) or Hh-conditioned medium (30% or 60%); cell extracts immunoprecipitated with anti-Myc, western blot with anti-HA

Q: “HA-PH^OSBP (HA-tagged PH domain of the oxysterol binding protein) (domain or fragment)” was tested. Which binding did it give?
A: Its binding is “binds”.
